Hit rate of the full screen: of about 320,000 compounds, about 200 (0.062%) were called active. Not shown: some 6% with an inconclusive outcome. The call rests on the fitted dose curve; in most records, active means well fitted activation curve with a large enough effect; inconclusive means small, poorly fitted or top-dose-only effect; inactive means no such curve, though single readings can be large or run the other way. The entries are a selection whose mix differs from that of the whole data set. Entries without a call were filed so in the source.
Test: qHTS assay for re-activators of p53 using a Luc reporter; further: nearly all actives have a fitted effect of over 45% in size; on activity change, positive = activation: % of control where 0% means no effect
Conditions: H1299 p53-A138V BP100-luciferase reporter, luminescence, 24 h; activity change, positive = activation: at 92.2 µM (top of the series)
Description: The p53 tumor suppressor plays a key role in suppression of tumorigenesis and in human carcinogenesis. It is frequently found inactivated in human cancers, mainly by point mutation. These point mutations are found in a wide variety of human cancers and a majority of them affect the DNA binding domain of the protein. The point mutations either alter native p53 conformation or abolish DNA contact. Additionally, cancer cells with p53 mutations are more resistant to chemo-radiation therapies. In order to find activators to reactivate this important protein, a cell-based screen for p53-dependent luciferase-reporter expression was developed. A p53-null H1299 lung cancer cell line was stably co-transfected with a temperature sensitive p53 mutant, p53-A138V, and a p53-responsive BP100-luciferase reporter. This cell model has previously been characterized in a gene chip profiling experiment for p53 activation. By lowering the culture temperature from 37 deg C (mutant p53 conformation) to 32 deg C (w.t. p53 conformation), a 30-60 fold increase in activation of luciferase activity is observed. At assay temperate, 37 deg C, basal reporter expression is very low and after the addition of detection reagent, a luminescent read-out is carried out. NIH Chemical Genomics Center [NCGC] NIH Molecular Libraries Probe Production Centers Network [MLPCN] MLPCN Grant: DA031088-01A1 Assay Provider (PI): Yi Sung, University of Michigan at Ann Arbor
5ul of 1000 cells per well are dispensed in all wells except column 4, into white solid-bottom TC-treated Kalypsys plates. The cells are kept in Opti-MEM and supplemented with 10% FBS and dispensed using a Multidrop (Thermo). Then using the Kalypsys pin-tool, 23nl of compounds are pinned. The compounds are starting concentration at 10mM, with 1:5 dilution, 4 points, and the control compound nocodazole is pinned in column 1 at 25mM, 1:3 dilution, in duplicate, 25mM nocodazole is pinned in column 2. Please note, all concentrations are working concentrations. 5ul of 1pM purified luciferase enzyme is dispensed using the Kalypsys dispenser in column 4. Plates are incubated for 24 hrs at 37 deg C, 5% CO2, and 95% humidity. Then 4ul of the detection reagent Amplite (ABD Bioquest) is added using the Kalypsys dispenser. Plates are incubated for 10 min at ambient room temperature and are then read on the ViewLux (Perkin Elmer) using a clear filter for a luminescent read-out.
Potency means the concentration at half of the fitted maximal effect.

Compound | activity change, positive = activation | Potency
CC(/C=N/NC(=O)c1ccncc1)=C\c1ccc(C(C)C)cc1 | inactive: 41.7% | 
O=C(NCc1ccco1)c1nc2ccccc2s1 | 24% | 
O=c1c2ccccc2oc2ccc(-c3ccc4cc[nH]c4c3)cc12 | 62.9% | 
O=[N+]([O-])c1ccc(NC(=S)N2CCCC2)cc1 | inactive: -37.5% | 
O=C(Nc1ccccn1)c1onc2c1CCCC2 | 32.1% | 
CCOC(=O)c1c(N2C(=O)C=CC2=O)sc(C)c1C | inactive: -26.8% | 
Nc1c(C(=O)Nc2ccccc2)nnn1-c1ccc2c(c1)OCCO2 | 58.1% | 
O=C1C2C3C=CC(C3)C2C(=O)N1c1ccc(-c2nc3ccccc3o2)cc1 (stereo not given) | 54.4% | 
COc1cccc(C(=O)O/N=C(\N)c2ccncc2)c1OC | 36.4% | 
O=C(N/N=C/C(Cl)=C\c1ccccc1)c1cnccn1 |  | active: 12.6 µM
CC12COC3(C(=O)NCCc4ccccc4)CC1CCC32C (stereo not given) | 31.3% | 
CC(=O)Nc1cc2nn(-c3ccccc3)nc2cc1C | 42.5% | 
COc1ccc2c(c1)C(=NNC(=O)c1ccccn1)c1cc(OC)ccc1-2 | inactive: -49.7% | 
Cc1cc(=O)oc2cc(NC(=O)c3cc(F)ccc3F)ccc12 | 22.8% | 
CCc1ccc(NCc2nc3ccccc3c(=O)[nH]2)cc1 | 31.7% | 
CN(C)c1ccc(N=Cc2nc(-c3ccccc3)oc2OC(=O)c2cccc(Cl)c2)cc1 | 80.3% | 
COc1ccccc1C1/C(=C(/O)c2ccccc2)C(=O)C(=O)N1CC(C)C (stereo not given) | 45.2% | 
N/C(=N\OC(=O)c1cccc(Cl)c1)c1ccccn1 | 63.4% | 
Cc1ccc(-c2nc3cc(C)ccc3o2)cc1 | 51.8% | 
Cc1ccn2c(c1)nc(=S)n2C(=O)c1ccccc1 | 316% | 
Oc1ccc(/C=N/Nc2ccc(C(F)(F)F)cn2)c(O)c1 |  | active: 11.2 µM
Cc1cc(=O)n2[nH]c(C)c(-c3ccc(Cl)cc3)c2n1 | inactive: -23.3% | 
O=C(Nc1ccc2c(c1)OCCO2)c1ccc(Br)s1 | 132% | 
COc1ccc(C(=O)C(CN2CCOCC2)c2ccccc2)cc1F (stereo not given) | inactive: -48.5% | 
c1ccc(-c2n[nH]c(-c3ccccn3)n2)nc1 | 51.9% | 

Compound | activity change, positive = activation | Potency
O=C(Nc1nc2c(s1)C(=O)CCC2)c1ccccc1 | 33.1% | 
Cc1cc(C(=O)Nc2ccc(Br)cn2)sc1C | 71.7% | 
O=C1c2cccc3c(O)ccc(c23)C(=O)N1c1ccc(Cl)cc1 | 72.7% | 
N#CC1=C(N)C(C#N)(C#N)[C@H](c2c(F)cccc2F)[C@H]2CC3(CC=C12)OCCO3 | inactive: -47.7% | 
Cc1cccc(NC(=O)CSc2nc3nc4c(cc3c(=O)n2-c2ccccc2)CCCC4)c1 | inactive: -30.2% | 
COc1cc(NC(=O)C2CC(c3ccccc3Cl)=NO2)cc(OC)c1OC (stereo not given) | inactive: -43.9% | 
CC(C)NC(=S)N1CCN(S(C)(=O)=O)CC1 | 41.9% | 
Cc1ccc(CSc2nc3ccncc3[nH]2)cc1 | 26.2% | 
Cc1ccc(/C(N)=N/OC(=O)c2ccco2)cc1 |  | active: 17.8 µM
O=[N+]([O-])c1c(NCCCO)cc(Sc2ccc(Cl)cc2)c2nonc12 | inactive: -39.5% | 
Nc1c(S(=O)(=O)c2cccs2)c2nc3ccccc3nc2n1CC1CCCO1 (stereo not given) | 45.4% | 
CS(=O)(=O)c1ccccc1C(=O)Nc1ccc(-c2nc3ccccc3[nH]2)cc1 | inactive: -31.5% | 
O=C(Nc1ccc2c(c1)CCC2)c1ccccc1 | 170% | 
COc1ccc(NC(=O)CN(C)CC(=O)Nc2ccccc2SC)cc1 | -11.4% | 
CN(C)/C=N/c1cnc(C(=O)c2ccc(Cl)cc2)n1C | 30% | 
Cc1cc(C(=O)Nc2sc3c(c2C#N)CCCCC3)cs1 | 31.9% | 
Cc1cs/c(=N\N=C\c2ccc(O)cc2)n1Cc1ccco1 | 68.7% | 
Cc1ccc(S(=O)(=O)N2CCOCC2)cc1C(=O)OCC(=O)N(Cc1ccccc1)C(C)C | inactive: -18.7% | 
CCOC(=O)C1=CN(Cc2cccc(F)c2)S(=O)(=O)NC1c1ccc(F)c(Cl)c1 (stereo not given) | 46.3% | 
Cc1cccc(-n2ncc3c(N4CCCC4)ncnc32)c1 | 45.8% | 
CCOC(=O)c1ccc(-c2nnc(-c3ccc(Cl)cc3Cl)o2)cc1 | 34.3% | 
Cc1cc(C(=O)CSc2nc3ccccc3[nH]2)c(C)n1C | 21.6% | 
NC(=O)c1cc(Cl)ccc1OCC(=O)Nc1ccc2c(c1)OCO2 | 70% | 
Cc1ccc2nc(-c3ccc(NC(=O)CCN4C(=O)c5ccccc5C4=O)cc3)sc2c1 | 164% | 
C=CCNc1ncnc2c1cnn2-c1ccc(Cl)cc1 | 72.6% | 

Compound | activity change, positive = activation | Potency
OCCN1CCN(c2ncnc3scc(-c4ccc(F)cc4)c23)CC1 | inactive: -35.7% | 
CC(C)c1ccc2oc(-c3ccc(N)cc3)nc2c1 | 60.2% | 
COc1cccc(-c2nnc(-c3ccco3)o2)c1 |  | active: 39.8 µM
Cc1cc(C)nc(Nc2nc3ccccc3[nH]2)n1 | 36.4% | 
CC(C)(C)c1ccc(Cn2cnc(-c3ccc([N+](=O)[O-])cc3)c2)cc1 |  | active: 28.2 µM
COc1ccc(S(=O)(=O)N(C(C)=O)c2ccc(OC(C)=O)c3ccccc23)cc1[N+](=O)[O-] | inactive: -33.6% | 
O=c1c2ccccc2nnn1CSc1ccccc1 | 82.9% | 
O=C1N=C(N2CCCC2)S/C1=C\C=C\c1ccccc1 | 36.9% | 
c1ccc(CCCc2nc(-c3ccccn3)no2)cc1 | 38.5% | 
COc1ccccc1/C=C/C(=O)c1ccccc1 |  | active: 31.6 µM
CCc1nnc(N/N=C/c2cc(Br)c(O)cc2O)n1N | inactive: -70.3% | 
Cn1c(N=Nc2ccccc2)nc2ccccc21 | 46.3% | 
Cc1c(C(=O)Nc2ccc3c(c2)OCO3)oc2ccccc12 | 31% | 
COc1ccc(-c2cc(-c3ccc(C)cc3)n[nH]2)c(O)c1 | 52.8% | 
Cc1ccc(-c2nc(-c3cccnc3)no2)c(C)c1 | 26.8% | 
CN=c1scc(-c2cccs2)n1/N=C/c1ccc(O)c(O)c1O | 110% | 
COc1cc(NC(=S)NCc2ccco2)cc(OC)c1OC | inactive: -47.4% | 
CCOCCCNC(=O)C1CCC(=O)N1CCc1ccccc1 (stereo not given) | 37.5% | 
Fc1ccc(Nc2c(-c3ccco3)nc3ccccn23)cc1 | 24.1% | 
COc1ccc(OCc2cccc(C(=O)N3CCCC3)c2)cc1 | 44.6% | 
CC(C(=O)N1CCCCC1)N(C)CC(=O)Nc1cccc(F)c1 (stereo not given) | inactive: -13.2% | 
O=[N+]([O-])c1ccc2nc(-c3ccccc3)[nH]c2c1 | 57.7% | 
CCC1CCCCN1S(=O)(=O)c1ccc(NC(=O)c2ccncc2)cc1 (stereo not given) | inactive: -52.2% | 
Cn1c(N)c(C(=O)COC(=O)c2ccnc3ccccc23)c(=O)n(C)c1=O | 138% | 
Oc1c(Cl)cc(CN2CCOCC2)c2cccnc12 | inactive: -32.8% | 

Copied from the list.
Entry of Cc1cs/c(=N\N=C\c2ccc(O)cc2)n1Cc1ccco1 under activity change, positive = activation: 68.7%
Entry of Cn1c(N=Nc2ccccc2)nc2ccccc21 under activity change, positive = activation: 46.3%

2 of the compounds above, tab-delimited:
Compound	activity change, positive = activation	Potency
Cc1cc(C)nc(Nc2nc3ccccc3[nH]2)n1	36.4%	
CCc1nnc(N/N=C/c2cc(Br)c(O)cc2O)n1N	inactive: -70.3%	
